Some of the results follow. Most entries show no effect beyond the scatter of the controls.
compound: Cc1nc(Nc2ncc(C(=O)Nc3c(C)cccc3Cl)s2)cc(N2CCN(CCO)CC2)n1 [dasatinib]; assay: log2 fold change of tryptic peptide abundance, ligand vs vehicle (limited proteolysis) (log2 ratio); higher = more trypsin-susceptible (destabilized); settings: ligand concentration: 5 uM; sample: K562 cleared lysate

Protein sequences, listed by entry. Tags and fused reporters are not part of them. Lines headed by an entry give the natural chain unless they say otherwise; changes in a name come on top.
UniProt Q9H9A5, whole entry: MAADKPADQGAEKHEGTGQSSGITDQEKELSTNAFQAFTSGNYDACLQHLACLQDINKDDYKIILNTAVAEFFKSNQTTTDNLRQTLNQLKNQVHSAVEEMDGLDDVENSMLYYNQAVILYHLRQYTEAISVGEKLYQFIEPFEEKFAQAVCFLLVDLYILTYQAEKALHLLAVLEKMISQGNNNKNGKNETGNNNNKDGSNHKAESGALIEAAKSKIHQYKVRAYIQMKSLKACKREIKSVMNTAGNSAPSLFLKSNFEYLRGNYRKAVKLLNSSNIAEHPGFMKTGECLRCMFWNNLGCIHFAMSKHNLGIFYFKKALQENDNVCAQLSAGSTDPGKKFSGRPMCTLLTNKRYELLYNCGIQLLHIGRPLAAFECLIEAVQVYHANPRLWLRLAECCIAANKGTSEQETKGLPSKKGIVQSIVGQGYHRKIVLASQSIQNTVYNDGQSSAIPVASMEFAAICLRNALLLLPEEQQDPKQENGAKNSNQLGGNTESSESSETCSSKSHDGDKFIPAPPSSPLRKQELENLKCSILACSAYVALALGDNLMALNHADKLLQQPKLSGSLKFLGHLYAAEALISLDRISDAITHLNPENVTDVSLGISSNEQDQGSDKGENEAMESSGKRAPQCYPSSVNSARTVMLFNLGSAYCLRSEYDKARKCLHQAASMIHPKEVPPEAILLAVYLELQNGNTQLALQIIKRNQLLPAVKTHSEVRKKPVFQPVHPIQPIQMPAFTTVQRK
UniProt Q9H5L6: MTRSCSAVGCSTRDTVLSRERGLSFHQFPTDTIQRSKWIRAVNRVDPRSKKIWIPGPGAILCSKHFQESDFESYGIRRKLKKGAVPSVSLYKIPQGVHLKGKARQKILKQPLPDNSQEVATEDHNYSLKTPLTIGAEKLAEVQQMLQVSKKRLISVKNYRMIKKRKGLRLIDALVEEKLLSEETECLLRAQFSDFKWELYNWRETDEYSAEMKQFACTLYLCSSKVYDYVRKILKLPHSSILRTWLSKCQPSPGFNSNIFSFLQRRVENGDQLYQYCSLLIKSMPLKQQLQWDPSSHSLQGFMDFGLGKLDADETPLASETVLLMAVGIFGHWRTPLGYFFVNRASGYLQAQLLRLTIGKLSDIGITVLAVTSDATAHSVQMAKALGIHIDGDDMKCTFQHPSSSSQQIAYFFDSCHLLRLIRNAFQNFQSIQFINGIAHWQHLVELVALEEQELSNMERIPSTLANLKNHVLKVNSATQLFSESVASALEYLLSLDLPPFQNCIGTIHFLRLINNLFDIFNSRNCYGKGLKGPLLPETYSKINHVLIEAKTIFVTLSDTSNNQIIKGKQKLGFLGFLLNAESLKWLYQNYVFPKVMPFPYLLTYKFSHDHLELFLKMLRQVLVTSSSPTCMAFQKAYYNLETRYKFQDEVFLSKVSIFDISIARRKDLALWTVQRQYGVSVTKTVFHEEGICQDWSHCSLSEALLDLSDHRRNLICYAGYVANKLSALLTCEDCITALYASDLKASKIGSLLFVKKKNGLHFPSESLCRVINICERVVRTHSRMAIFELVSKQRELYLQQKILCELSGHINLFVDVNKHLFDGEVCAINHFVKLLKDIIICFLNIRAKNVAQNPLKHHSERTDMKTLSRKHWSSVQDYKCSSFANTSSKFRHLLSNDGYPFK
UniProt Q9H871: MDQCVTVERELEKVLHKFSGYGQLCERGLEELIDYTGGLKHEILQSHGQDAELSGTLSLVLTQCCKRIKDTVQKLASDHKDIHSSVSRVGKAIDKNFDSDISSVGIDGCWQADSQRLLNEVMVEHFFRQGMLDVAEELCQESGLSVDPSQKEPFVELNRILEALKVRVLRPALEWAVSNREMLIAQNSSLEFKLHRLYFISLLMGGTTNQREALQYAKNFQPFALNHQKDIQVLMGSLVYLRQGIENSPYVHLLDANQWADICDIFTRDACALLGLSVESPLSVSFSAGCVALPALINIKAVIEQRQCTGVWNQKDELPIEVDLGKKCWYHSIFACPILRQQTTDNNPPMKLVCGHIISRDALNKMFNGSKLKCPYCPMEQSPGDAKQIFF
UniProt Q9H4G0, whole entry: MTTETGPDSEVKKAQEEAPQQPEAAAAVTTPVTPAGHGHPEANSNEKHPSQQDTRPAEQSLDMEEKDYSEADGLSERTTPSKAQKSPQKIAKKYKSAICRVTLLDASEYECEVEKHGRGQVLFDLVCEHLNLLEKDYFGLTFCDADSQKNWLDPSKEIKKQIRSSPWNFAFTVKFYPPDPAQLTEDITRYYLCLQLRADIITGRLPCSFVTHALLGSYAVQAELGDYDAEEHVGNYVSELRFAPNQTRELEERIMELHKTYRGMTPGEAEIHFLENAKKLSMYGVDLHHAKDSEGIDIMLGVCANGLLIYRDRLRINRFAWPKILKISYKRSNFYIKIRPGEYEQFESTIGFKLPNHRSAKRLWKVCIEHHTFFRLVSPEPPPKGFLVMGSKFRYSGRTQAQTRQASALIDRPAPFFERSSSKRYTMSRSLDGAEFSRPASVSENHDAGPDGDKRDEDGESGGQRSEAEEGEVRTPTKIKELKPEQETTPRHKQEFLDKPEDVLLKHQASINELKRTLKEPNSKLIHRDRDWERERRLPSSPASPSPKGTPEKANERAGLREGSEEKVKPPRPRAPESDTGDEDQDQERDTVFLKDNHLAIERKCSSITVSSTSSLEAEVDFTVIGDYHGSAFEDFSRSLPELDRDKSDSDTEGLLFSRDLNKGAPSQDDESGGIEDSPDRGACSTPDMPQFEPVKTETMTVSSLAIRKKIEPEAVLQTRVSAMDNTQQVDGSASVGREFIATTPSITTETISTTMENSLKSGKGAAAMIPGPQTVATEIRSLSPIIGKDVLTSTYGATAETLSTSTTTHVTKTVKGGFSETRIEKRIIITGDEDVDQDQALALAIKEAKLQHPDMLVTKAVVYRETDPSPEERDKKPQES
UniProt Q9H9Y6, whole entry: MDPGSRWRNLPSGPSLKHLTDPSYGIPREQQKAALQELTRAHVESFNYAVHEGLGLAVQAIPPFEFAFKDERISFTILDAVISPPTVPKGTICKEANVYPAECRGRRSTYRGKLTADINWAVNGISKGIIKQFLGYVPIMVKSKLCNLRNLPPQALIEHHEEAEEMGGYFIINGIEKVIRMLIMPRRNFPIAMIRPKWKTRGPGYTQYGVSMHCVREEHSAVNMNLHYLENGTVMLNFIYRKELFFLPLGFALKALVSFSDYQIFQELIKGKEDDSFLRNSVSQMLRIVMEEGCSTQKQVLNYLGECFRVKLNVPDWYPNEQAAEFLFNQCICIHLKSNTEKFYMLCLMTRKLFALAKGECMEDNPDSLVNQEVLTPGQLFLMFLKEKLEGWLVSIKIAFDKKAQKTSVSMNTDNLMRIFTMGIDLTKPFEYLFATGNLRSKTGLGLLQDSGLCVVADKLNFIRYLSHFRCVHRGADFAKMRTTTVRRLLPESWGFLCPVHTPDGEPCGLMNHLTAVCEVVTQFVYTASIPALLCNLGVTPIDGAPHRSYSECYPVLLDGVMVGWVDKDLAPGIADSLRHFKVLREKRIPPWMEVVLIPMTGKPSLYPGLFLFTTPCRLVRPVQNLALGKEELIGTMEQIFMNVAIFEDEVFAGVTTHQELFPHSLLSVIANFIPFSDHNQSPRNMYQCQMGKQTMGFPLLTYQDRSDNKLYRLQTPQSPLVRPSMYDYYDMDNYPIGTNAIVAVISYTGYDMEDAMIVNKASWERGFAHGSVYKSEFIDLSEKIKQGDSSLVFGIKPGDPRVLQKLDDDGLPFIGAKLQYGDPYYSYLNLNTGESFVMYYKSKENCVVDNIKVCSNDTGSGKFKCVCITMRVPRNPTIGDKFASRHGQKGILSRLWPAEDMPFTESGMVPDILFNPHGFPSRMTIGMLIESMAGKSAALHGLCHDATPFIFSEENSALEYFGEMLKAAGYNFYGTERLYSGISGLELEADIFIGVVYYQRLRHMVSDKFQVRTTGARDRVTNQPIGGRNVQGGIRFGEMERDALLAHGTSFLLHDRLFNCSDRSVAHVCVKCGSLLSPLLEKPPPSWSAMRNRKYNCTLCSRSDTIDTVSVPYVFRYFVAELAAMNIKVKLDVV
UniProt Q9H479: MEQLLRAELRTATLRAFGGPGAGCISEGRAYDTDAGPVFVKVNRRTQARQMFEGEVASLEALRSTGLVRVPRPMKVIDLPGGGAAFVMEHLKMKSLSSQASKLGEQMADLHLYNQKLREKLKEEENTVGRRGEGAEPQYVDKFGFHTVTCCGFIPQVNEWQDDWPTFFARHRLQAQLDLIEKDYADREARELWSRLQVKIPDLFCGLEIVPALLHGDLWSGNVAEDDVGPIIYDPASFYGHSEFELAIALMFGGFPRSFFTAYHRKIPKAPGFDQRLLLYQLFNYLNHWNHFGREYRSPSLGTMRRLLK
UniProt Q9H9C1: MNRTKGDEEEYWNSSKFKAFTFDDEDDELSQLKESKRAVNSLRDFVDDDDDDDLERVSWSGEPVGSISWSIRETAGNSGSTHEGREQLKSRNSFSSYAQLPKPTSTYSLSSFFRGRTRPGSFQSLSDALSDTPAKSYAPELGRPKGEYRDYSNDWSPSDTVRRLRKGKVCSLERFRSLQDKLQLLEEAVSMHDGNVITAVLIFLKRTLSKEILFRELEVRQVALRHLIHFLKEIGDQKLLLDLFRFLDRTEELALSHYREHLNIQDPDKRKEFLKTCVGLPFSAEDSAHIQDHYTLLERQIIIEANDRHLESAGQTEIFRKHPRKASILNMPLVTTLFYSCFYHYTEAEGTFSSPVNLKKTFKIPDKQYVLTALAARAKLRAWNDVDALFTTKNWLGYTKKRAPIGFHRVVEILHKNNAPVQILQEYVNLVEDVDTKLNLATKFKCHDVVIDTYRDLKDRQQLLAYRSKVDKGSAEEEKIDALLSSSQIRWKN
UniProt Q9H8H0: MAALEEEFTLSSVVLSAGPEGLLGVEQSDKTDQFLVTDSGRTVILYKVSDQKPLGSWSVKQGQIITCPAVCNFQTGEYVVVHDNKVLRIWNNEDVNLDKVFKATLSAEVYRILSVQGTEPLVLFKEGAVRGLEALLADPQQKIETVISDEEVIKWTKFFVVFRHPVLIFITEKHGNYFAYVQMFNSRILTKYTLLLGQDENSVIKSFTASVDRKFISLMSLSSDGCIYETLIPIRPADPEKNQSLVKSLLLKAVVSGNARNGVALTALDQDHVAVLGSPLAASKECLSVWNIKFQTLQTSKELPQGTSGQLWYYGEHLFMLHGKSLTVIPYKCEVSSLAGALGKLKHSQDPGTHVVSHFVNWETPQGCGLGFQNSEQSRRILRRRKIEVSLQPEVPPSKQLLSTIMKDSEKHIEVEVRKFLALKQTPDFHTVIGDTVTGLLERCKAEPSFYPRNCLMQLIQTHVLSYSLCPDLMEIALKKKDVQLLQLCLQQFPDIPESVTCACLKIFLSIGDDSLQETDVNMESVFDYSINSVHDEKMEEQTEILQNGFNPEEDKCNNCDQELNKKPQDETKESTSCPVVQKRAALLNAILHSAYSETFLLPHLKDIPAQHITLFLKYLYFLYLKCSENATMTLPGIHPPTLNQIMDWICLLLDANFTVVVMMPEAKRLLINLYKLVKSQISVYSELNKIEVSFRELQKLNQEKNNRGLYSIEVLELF
UniProt Q9HCE1: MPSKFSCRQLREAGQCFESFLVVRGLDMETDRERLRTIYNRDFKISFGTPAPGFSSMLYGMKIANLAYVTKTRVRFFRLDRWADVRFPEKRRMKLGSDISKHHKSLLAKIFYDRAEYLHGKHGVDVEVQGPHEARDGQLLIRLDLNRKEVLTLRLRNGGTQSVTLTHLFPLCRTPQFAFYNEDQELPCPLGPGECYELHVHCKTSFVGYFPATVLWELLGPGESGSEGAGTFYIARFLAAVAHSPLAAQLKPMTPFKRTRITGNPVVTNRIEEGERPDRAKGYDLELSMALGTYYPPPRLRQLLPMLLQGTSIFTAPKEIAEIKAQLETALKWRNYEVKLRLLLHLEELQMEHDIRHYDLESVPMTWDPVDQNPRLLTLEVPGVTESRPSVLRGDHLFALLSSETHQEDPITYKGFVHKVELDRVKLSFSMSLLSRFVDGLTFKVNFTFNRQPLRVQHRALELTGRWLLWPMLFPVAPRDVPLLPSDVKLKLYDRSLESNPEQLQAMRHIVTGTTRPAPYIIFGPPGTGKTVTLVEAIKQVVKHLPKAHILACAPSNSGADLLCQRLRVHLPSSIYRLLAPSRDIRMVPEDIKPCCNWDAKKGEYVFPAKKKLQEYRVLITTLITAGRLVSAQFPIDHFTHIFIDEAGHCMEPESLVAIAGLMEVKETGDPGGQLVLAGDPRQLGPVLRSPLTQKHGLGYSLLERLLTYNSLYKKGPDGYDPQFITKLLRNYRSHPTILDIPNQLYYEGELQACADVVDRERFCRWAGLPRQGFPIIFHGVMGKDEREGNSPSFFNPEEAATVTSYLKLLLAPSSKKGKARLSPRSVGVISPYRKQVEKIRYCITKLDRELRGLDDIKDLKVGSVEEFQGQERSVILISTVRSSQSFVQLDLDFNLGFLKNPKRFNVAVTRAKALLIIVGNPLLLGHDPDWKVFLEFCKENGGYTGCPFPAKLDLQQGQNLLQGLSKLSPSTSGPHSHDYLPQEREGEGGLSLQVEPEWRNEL

Target	log2 fold change
CNOT10 (peptide sequence: AESGALIEAAK, peptide start residue: 205) (UniProt Q9H9A5)	-0.286
THAP9 (peptide sequence: IGSLLFVK, peptide start residue: 749) (UniProt Q9H5L6)	0.383
UniProt Q9H871 (peptide sequence: CWYHSIFACPILR, peptide start residue: 328)	-0.165
EPB41L1 (peptide sequence: LQHPDMLVTK, peptide start residue: 851) (UniProt Q9H4G0)	0.32
POLR1B (peptide sequence: LFNCSDR, peptide start residue: 1058) (UniProt Q9H9Y6)	-0.0982
FN3K (peptide sequence: LQAQLDLIEKDYADR, peptide start residue: 173) (UniProt Q9H479)	0.351
UniProt Q9H9C1 (peptide sequence: QQLLAYR, peptide start residue: 461)	-0.479
NOL11 (peptide sequence: QLLSTIMKDSEK, peptide start residue: 400) (UniProt Q9H8H0)	0.197
MOV10 (peptide sequence: SVGVISPYRK, peptide start residue: 826) (UniProt Q9HCE1)	-0.342

Some values from the results shown:
For log2 fold change, FN3K (peptide sequence: LQAQLDLIEKDYADR, peptide start residue: 173) (UniProt Q9H479) reads 0.351
For log2 fold change, UniProt Q9H9C1 (peptide sequence: QQLLAYR, peptide start residue: 461) reads -0.479

Source: the supplement of paper PMC12819154, “High-throughput peptide-centric local stability assay extends protein–ligand identification to membrane proteins, tissues and bacteria” (Nature Structural & Molecular Biology, 2025)
